In the supplement of paper PMC12819154, “High-throughput peptide-centric local stability assay extends protein–ligand identification to membrane proteins, tissues and bacteria” (Nature Structural & Molecular Biology, 2025):
The other results are listed elsewhere or left out. Most values lie at the level of the controls, where differences are scatter.

Protein sequences, listed by entry. Tags and fused reporters are not part of them. Lines headed by an entry give the natural chain unless they say otherwise; changes in a name come on top.
UniProt Q9CY45: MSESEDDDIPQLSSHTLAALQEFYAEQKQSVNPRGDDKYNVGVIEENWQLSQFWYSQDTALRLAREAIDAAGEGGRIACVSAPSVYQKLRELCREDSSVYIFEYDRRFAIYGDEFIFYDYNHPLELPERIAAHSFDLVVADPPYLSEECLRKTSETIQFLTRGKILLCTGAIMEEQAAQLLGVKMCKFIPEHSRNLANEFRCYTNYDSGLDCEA
UniProt Q9CRA8, whole entry: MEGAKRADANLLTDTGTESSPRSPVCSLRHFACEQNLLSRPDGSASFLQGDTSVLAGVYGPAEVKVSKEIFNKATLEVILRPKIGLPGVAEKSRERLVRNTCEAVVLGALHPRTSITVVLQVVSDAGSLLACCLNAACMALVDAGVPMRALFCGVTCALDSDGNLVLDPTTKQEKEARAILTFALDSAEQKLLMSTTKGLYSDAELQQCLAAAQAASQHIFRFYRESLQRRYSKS
UniProt Q9CZT6: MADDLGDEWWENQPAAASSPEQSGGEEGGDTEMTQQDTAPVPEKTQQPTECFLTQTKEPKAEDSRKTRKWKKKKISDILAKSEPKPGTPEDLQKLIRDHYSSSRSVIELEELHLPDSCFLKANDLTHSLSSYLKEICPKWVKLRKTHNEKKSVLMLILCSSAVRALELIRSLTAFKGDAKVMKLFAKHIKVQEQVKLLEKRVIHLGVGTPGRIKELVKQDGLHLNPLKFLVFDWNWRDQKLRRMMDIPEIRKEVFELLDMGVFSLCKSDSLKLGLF
UniProt Q9D0I6: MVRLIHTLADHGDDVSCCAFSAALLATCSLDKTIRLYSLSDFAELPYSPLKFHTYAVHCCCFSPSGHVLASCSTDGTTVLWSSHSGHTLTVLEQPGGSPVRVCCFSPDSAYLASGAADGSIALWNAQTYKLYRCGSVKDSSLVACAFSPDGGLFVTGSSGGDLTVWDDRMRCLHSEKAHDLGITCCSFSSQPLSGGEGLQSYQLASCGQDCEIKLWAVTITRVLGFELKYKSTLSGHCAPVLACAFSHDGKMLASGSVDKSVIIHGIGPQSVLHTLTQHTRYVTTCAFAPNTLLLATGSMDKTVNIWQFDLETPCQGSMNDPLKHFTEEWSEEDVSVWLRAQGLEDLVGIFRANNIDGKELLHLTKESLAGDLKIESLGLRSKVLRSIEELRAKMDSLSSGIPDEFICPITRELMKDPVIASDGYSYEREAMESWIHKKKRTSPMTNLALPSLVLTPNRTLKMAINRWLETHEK
UniProt Q9D0B1: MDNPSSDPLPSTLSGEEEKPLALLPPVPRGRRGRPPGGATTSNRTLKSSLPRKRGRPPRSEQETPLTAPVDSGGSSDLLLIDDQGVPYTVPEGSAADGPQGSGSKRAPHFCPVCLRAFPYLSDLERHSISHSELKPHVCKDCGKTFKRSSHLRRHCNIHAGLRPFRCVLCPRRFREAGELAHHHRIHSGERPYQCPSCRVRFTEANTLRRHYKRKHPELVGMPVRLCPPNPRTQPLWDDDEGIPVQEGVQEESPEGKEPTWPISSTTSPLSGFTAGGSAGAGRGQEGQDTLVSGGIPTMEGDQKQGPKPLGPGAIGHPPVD
UniProt Q9D0Q7, whole entry: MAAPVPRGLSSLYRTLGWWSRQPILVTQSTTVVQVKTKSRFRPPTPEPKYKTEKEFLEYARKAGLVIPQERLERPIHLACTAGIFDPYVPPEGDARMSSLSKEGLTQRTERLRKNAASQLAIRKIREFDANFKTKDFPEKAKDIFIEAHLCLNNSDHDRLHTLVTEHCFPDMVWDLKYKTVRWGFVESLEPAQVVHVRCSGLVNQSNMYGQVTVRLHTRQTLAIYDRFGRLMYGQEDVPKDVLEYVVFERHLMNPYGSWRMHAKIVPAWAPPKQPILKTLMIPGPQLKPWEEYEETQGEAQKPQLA
UniProt Q9CVI2: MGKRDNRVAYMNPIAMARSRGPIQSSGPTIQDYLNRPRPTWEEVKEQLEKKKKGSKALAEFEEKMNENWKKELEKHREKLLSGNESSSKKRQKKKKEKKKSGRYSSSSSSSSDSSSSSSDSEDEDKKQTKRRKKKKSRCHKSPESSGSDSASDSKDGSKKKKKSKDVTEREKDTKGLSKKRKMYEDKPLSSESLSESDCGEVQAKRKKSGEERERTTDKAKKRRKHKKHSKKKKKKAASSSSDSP
UniProt Q9CZJ9: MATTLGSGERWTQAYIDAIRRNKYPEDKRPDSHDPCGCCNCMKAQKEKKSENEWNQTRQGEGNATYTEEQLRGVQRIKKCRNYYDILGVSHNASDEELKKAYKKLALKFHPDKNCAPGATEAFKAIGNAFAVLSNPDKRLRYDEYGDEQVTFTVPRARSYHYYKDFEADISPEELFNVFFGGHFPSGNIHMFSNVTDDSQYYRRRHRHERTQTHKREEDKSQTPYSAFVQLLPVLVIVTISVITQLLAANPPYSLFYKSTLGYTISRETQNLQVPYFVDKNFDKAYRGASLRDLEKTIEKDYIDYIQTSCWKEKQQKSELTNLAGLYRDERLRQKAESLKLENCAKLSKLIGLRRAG
UniProt Q9CRC0: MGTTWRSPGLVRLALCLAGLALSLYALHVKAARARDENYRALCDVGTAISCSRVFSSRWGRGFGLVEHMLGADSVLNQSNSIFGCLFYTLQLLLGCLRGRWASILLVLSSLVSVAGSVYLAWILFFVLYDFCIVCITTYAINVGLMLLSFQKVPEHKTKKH
UniProt Q9D0L4: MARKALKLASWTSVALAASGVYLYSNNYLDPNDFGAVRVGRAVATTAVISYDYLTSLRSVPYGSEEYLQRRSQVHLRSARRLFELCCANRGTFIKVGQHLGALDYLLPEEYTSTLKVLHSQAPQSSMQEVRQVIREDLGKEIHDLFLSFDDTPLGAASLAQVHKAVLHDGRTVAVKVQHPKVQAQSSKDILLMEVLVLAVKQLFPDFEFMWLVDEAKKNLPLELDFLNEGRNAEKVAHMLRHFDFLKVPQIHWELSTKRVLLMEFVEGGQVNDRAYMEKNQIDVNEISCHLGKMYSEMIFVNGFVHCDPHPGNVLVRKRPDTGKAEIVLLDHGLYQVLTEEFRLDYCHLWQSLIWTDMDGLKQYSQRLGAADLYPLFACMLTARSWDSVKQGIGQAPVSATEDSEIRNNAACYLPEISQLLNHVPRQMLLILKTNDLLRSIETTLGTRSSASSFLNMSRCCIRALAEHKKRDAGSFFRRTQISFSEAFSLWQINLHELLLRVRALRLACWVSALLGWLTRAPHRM
UniProt Q9D0R2: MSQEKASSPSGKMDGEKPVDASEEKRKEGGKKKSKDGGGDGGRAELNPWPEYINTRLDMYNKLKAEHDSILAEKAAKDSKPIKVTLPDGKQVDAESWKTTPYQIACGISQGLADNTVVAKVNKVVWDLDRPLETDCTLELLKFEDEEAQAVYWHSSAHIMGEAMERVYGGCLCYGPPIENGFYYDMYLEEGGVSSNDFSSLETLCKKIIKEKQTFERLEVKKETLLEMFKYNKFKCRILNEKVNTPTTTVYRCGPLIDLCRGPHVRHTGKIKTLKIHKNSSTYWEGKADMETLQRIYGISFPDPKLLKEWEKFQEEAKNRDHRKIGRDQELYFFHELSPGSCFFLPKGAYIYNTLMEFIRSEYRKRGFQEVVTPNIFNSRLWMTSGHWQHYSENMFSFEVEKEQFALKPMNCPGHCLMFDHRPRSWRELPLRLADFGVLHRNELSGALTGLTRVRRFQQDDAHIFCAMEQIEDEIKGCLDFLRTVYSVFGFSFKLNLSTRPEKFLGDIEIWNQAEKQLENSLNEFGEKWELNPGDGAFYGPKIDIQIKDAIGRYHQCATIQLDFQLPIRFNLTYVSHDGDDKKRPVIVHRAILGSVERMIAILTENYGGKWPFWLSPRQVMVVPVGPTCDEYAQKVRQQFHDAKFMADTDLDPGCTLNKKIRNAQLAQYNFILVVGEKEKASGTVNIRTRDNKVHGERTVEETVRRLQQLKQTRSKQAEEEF
UniProt Q9CZB6: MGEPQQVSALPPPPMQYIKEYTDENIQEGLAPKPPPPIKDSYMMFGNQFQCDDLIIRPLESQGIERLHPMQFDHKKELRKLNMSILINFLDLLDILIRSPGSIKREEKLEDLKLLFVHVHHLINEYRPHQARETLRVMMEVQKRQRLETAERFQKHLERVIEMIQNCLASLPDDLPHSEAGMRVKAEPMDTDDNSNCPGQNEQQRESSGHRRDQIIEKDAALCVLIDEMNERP
UniProt Q9CWZ7: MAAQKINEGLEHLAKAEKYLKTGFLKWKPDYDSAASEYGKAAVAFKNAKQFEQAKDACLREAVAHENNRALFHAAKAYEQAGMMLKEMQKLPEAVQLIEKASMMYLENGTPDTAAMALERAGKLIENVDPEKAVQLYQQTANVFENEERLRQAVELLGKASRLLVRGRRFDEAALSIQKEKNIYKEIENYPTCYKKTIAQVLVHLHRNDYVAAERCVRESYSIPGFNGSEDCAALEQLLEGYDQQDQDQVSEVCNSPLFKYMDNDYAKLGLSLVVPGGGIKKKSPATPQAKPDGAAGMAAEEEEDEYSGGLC
UniProt Q9CZ96: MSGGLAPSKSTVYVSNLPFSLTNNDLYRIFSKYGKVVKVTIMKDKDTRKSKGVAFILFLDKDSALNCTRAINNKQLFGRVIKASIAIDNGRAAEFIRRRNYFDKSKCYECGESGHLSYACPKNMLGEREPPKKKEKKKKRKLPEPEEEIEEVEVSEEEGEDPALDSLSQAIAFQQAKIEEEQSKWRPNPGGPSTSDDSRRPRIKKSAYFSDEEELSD
UniProt Q9CZN7: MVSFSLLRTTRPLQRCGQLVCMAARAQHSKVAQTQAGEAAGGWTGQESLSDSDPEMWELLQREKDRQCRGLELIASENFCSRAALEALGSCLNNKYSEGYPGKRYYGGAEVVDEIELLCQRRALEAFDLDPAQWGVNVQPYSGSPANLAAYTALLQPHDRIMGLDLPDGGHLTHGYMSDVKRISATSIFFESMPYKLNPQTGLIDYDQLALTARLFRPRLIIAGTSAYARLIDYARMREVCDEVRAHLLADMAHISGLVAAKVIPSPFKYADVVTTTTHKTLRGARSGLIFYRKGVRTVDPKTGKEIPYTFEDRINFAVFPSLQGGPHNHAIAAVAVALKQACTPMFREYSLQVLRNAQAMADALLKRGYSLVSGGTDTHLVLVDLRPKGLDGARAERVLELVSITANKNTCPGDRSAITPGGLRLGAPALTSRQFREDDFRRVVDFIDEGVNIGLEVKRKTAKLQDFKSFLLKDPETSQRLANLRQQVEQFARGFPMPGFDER
UniProt Q9CZH3: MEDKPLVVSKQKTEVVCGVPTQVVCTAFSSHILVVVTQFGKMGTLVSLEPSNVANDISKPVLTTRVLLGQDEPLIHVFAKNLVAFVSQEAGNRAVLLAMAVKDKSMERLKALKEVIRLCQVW
UniProt Q9CRB3: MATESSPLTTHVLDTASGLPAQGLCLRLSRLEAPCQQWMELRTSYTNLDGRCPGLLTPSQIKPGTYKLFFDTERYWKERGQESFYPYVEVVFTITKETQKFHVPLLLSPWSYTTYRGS
UniProt Q9D0E3: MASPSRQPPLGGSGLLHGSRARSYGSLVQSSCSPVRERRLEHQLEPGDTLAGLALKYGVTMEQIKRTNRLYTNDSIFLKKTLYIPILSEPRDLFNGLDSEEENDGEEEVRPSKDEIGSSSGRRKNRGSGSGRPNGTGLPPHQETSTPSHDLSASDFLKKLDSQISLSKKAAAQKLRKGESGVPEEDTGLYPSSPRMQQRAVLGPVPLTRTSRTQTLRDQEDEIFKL
UniProt Q9CZ92: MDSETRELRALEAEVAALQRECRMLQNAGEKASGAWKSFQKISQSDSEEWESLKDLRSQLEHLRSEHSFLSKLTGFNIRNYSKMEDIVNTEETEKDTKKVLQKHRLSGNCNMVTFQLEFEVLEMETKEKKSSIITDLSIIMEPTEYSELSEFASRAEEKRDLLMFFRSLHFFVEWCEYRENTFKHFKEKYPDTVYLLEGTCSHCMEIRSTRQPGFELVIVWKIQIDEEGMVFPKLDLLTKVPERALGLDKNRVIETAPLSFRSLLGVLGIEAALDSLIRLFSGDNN
UniProt Q9D0K1: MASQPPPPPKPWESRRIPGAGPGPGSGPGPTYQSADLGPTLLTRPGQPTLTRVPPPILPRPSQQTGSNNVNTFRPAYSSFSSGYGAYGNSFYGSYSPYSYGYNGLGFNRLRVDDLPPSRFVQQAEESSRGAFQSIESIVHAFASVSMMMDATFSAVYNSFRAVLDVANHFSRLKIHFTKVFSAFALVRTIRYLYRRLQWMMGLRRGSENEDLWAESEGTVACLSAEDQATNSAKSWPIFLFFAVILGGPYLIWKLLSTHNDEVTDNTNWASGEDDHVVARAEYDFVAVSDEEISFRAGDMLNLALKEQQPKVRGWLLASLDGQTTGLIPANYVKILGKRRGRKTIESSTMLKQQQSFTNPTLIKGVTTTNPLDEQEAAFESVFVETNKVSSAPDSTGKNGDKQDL
UniProt Q9CZX5: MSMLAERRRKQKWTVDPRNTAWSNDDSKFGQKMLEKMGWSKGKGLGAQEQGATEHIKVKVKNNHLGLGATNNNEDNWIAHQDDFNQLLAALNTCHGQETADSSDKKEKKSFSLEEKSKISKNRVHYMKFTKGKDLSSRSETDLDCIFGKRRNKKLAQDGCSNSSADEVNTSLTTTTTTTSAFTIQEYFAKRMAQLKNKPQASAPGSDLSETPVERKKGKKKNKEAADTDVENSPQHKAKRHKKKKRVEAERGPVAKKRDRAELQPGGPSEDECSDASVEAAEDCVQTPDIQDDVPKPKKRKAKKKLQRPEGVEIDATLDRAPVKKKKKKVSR

compound: CN[C@@H]1C[C@H]2O[C@@](C)([C@@H]1OC)n1c3ccccc3c3c4c(c5c6ccccc6n2c5c31)C(=O)NC4 [staurosporine]; assay: log2 fold change of tryptic peptide abundance, ligand vs vehicle (limited proteolysis) (log2 ratio); higher = more trypsin-susceptible (destabilized); conditions: ligand concentration: 20 uM; sample: mouse liver crude lysate; replicate design: treated separately

| Target | log2 fold change |
| --- | --- |
| UniProt Q9CY45 (peptide sequence: EAIDAAGEGGR, peptide start residue: 66) | -0.498 |
| UniProt Q9CZD0 (peptide sequence: DAVTPEER, peptide start residue: 207) | 0.0475 |
| UniProt Q9CRA8 (peptide sequence: RADANLLTDTGTESSPR, peptide start residue: 6) | -0.132 |
| UniProt Q9CZT6 (peptide sequence: KISDILAK, peptide start residue: 74) | 0.0718 |
| UniProt Q9CZY3 (peptide sequence: AATTGSGVKVPR, peptide start residue: 2) | 0.175 |
| UniProt Q9CXF7 (peptide sequence: TLSEFSAVFR, peptide start residue: 183) | -0.385 |
| UniProt Q9D0I6 (peptide sequence: EAMESWIHKK, peptide start residue: 430) | 0.207 |
| UniProt Q9D0B1 (peptide sequence: RAPHFCPVCLR, peptide start residue: 106) | -0.25 |
| UniProt Q9D0S9 (peptide sequence: KIAQAQGLK, peptide start residue: 120) | -0.163 |
| UniProt Q9D0Q7 (peptide sequence: IVPAWAPPKQPILK, peptide start residue: 265) | 0.238 |
| UniProt Q9CVI2 (peptide sequence: LLSGNESSSK, peptide start residue: 80) | -0.297 |
| UniProt Q9CZJ9 (peptide sequence: SENEWNQTR, peptide start residue: 50) | -0.634 |
| UniProt Q9CRC0 (peptide sequence: ARDENYR, peptide start residue: 34) | 0.657 |
| UniProt Q9D0L4 (peptide sequence: VLHSQAPQSSMQEVR, peptide start residue: 117) | -0.645 |
| UniProt Q9D0R2 (peptide sequence: FNLTYVSHDGDDK, peptide start residue: 570) | -0.445 |
| UniProt Q9CZB6 (peptide sequence: LHPMQFDHKK, peptide start residue: 67) | 0.17 |

A portion taken from the entries so far:

| Target | log2 fold change |
| --- | --- |
| UniProt Q9D0Q7 (peptide sequence: IVPAWAPPKQPILK, peptide start residue: 265) | 0.238 |
| UniProt Q9CVI2 (peptide sequence: LLSGNESSSK, peptide start residue: 80) | -0.297 |

Additional results

| Target | log2 fold change |
| --- | --- |
| UniProt Q9CWZ7 (peptide sequence: TIAQVLVHLHRNDYVAAER, peptide start residue: 197) | 0.551 |
| UniProt Q9CZ96 (peptide sequence: IEEEQSK, peptide start residue: 178) | -0.236 |
| UniProt Q9CR57 (peptide sequence: CMQLTDFILKFPHSAR, peptide start residue: 54) | 0.146 |
| UniProt Q9CZN7 (peptide sequence: LGAPALTSR, peptide start residue: 426) | -0.139 |
| UniProt Q9CZH3 (peptide sequence: VLLGQDEPLIHVFAK, peptide start residue: 66) | 0.314 |
| UniProt Q9CZR8 (peptide sequence: LGENMILK, peptide start residue: 192) | 0.126 |
| UniProt Q9CZT4 (peptide sequence: FSRPESEQAR, peptide start residue: 177) | -0.709 |
| UniProt Q9CY73 (peptide sequence: RPWDYSKPK, peptide start residue: 312) | 0.864 |
| UniProt Q9CRB3 (peptide sequence: TSYTNLDGR, peptide start residue: 43) | -0.386 |
| UniProt Q9CXC3 (peptide sequence: LEEYTEK, peptide start residue: 322) | 0.257 |
| UniProt Q9D0E3 (peptide sequence: YGVTMEQIKR, peptide start residue: 57) | 0.32 |
| UniProt Q9CZ92 (peptide sequence: SQLEHLR, peptide start residue: 58) | -0.118 |
| UniProt Q9CXD6 (peptide sequence: KENLPLSVSR, peptide start residue: 134) | -0.0946 |
| UniProt Q9D0K1 (peptide sequence: AGDMLNLALKEQQPK, peptide start residue: 297) | -0.132 |
| UniProt Q9CZX5 (peptide sequence: SETDLDCIFGK, peptide start residue: 139) | -0.1 |
